PubChem BioAssay AID652272 – Drosophila RNAi Screening Center – 2013

- Aim: 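Finding fly genes that regulate Hedgehog signal transduction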 (primary screen)
- Cell system: Drosophila clone 8 (Cl8) cells
- Knock-down reagent: long dsRNA against Drosophila genes
- Measurement: 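Plate reader light from a firefly reporter under a ptc promoter fragment that responds to Hedgehog, with Renilla light as transfection reference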
- Direction: firefly Hh reporter signal: higher = more ptc reporter light; Renilla reference signal: higher = more Renilla control light
- Rule for the call: 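Hit when the z-score averaged over two replicates is under -2 or over +3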
- Meaning of the calls: active = hit: reporter lowered or raised; inactive = not a hit
In all, the deposit lists about 21,000 reagents; shown is an unselected part of those with a known target gene and a result. Over the whole deposit, 503 (2.4%) got an active call. 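Raw plate light values, not normalised; calls rest on replicate z-scores that were not deposited; hits include reporter decreases as well as increases.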 A number with no mark means an inactive call. A plus sign joins genes that one reagent is predicted to hit. Reagent sequences are not shown. The record does not give: the amount of reagent, the time to read-out.

For sPLA2 [DRSC06041], the entry reads firefly Hh reporter signal, replicate 1 = 1.23e5; firefly Hh reporter signal, replicate 2 = 69475; Renilla reference signal, replicate 1 = 3196; Renilla reference signal, replicate 2 = 6600.
With knock-down of CG9386 [DRSC16485] the results were firefly Hh reporter signal, replicate 1 = 95840; firefly Hh reporter signal, replicate 2 = 97094; Renilla reference signal, replicate 1 = 3269; Renilla reference signal, replicate 2 = 2699.
Depletion of RpS7 [DRSC15394] gave: firefly Hh reporter signal, replicate 1 = 25682; firefly Hh reporter signal, replicate 2 = 43858; Renilla reference signal, replicate 1 = 1250; Renilla reference signal, replicate 2 = 1955.
Against CG13018 [DRSC06274], the values are firefly Hh reporter signal, replicate 1 = 63299; firefly Hh reporter signal, replicate 2 = 65846; Renilla reference signal, replicate 1 = 1885; Renilla reference signal, replicate 2 = 4017.
Silencing of Muc91C [DRSC16297] resulted in: firefly Hh reporter signal, replicate 1 = 8.94e5; firefly Hh reporter signal, replicate 2 = 2.04e5; Renilla reference signal, replicate 1 = 46372; Renilla reference signal, replicate 2 = 5607.
Depletion of Dhc62B [DRSC08655] resulted in: firefly Hh reporter signal, replicate 1 = 61763; firefly Hh reporter signal, replicate 2 = 27355; Renilla reference signal, replicate 1 = 2235; Renilla reference signal, replicate 2 = 2331.
CG6294 + CG6299 [DRSC19980] scored firefly Hh reporter signal, replicate 1 = 61221; firefly Hh reporter signal, replicate 2 = 1.68e5; Renilla reference signal, replicate 1 = 1818; Renilla reference signal, replicate 2 = 7060.

2 successive records from above, quoted:
Dhc62B [DRSC08655]: firefly Hh reporter signal, replicate 1 = 61763; firefly Hh reporter signal, replicate 2 = 27355; Renilla reference signal, replicate 1 = 2235; Renilla reference signal, replicate 2 = 2331
CG6294 + CG6299 [DRSC19980]: firefly Hh reporter signal, replicate 1 = 61221; firefly Hh reporter signal, replicate 2 = 1.68e5; Renilla reference signal, replicate 1 = 1818; Renilla reference signal, replicate 2 = 7060

The list goes on.
Knock-down of Arc2 [DRSC06436] gave: firefly Hh reporter signal, replicate 1 = 77782; firefly Hh reporter signal, replicate 2 = 43672; Renilla reference signal, replicate 1 = 1929; Renilla reference signal, replicate 2 = 3011.
Knock-down of CG31406 [DRSC12777] gave: firefly Hh reporter signal, replicate 1 = 2.03e5; Renilla reference signal, replicate 1 = 3809.
Knock-down of CG3347 [DRSC00597] resulted in: firefly Hh reporter signal, replicate 1 = 1.16e5; firefly Hh reporter signal, replicate 2 = 60338; Renilla reference signal, replicate 1 = 2924; Renilla reference signal, replicate 2 = 5776.
Against RpL24-like [DRSC16111], the values are firefly Hh reporter signal, replicate 1 = 67072; firefly Hh reporter signal, replicate 2 = 98487; Renilla reference signal, replicate 1 = 2817; Renilla reference signal, replicate 2 = 3609.
With knock-down of Snx16 [DRSC06984], the screen gave firefly Hh reporter signal, replicate 1 = 91594; firefly Hh reporter signal, replicate 2 = 39740; Renilla reference signal, replicate 1 = 2546; Renilla reference signal, replicate 2 = 2752.
After knock-down of CG31835 + CG42585 [DRSC01412], the screen gave firefly Hh reporter signal, replicate 1 = 1.25e5; firefly Hh reporter signal, replicate 2 = 1.79e5; Renilla reference signal, replicate 1 = 3723; Renilla reference signal, replicate 2 = 7840.
After knock-down of CG7550 [DRSC10875] the results were firefly Hh reporter signal, replicate 1 = 59149; firefly Hh reporter signal, replicate 2 = 63003; Renilla reference signal, replicate 1 = 5654; Renilla reference signal, replicate 2 = 4690.
Mid1 [DRSC04230] scored firefly Hh reporter signal, replicate 1 = 94732; firefly Hh reporter signal, replicate 2 = 5.44e5; firefly Hh reporter signal, replicate 3 = 59346; Renilla reference signal, replicate 1 = 2453; Renilla reference signal, replicate 2 = 31883.
After knock-down of Mid1 [DRSC04231], the record shows firefly Hh reporter signal, replicate 1 = 1.17e5; firefly Hh reporter signal, replicate 2 = 65066; Renilla reference signal, replicate 1 = 2908; Renilla reference signal, replicate 2 = 5819.
Against Mid1 [DRSC04308], the entry reads firefly Hh reporter signal, replicate 1 = 1.02e5; firefly Hh reporter signal, replicate 2 = 53456; Renilla reference signal, replicate 1 = 2662; Renilla reference signal, replicate 2 = 5236.
Ubc87F [DRSC16513] gave firefly Hh reporter signal, replicate 1 = 91490; firefly Hh reporter signal, replicate 2 = 1.39e5; Renilla reference signal, replicate 1 = 3937; Renilla reference signal, replicate 2 = 4201.
With knock-down of CG32032 [DRSC08961] the results were firefly Hh reporter signal, replicate 1 = 98461; firefly Hh reporter signal, replicate 2 = 2.46e5; Renilla reference signal, replicate 1 = 2779; Renilla reference signal, replicate 2 = 8420.
For SsRbeta [DRSC11290] the deposit lists firefly Hh reporter signal, replicate 1 = 59943; firefly Hh reporter signal, replicate 2 = 43827; Renilla reference signal, replicate 1 = 2506; Renilla reference signal, replicate 2 = 2289.
After knock-down of CG5877 [DRSC19963], the record shows firefly Hh reporter signal, replicate 1 = 1.30e5; firefly Hh reporter signal, replicate 2 = 96311; Renilla reference signal, replicate 1 = 3280; Renilla reference signal, replicate 2 = 2257.
